From patent US20120020940A1, “ANTIMICROBIAL PEPTIDES” (Helmholtz Zentrum München Deutsches Forschungszentrum Für …, priority 2008, published 2012)
At least one peptide structure holds a part that was inferred or is arguable (an end, a ring closure or a residue). No end group written: not given here.

Assays:
Staphylococcus aureus = assay: MIC incl. multi-drug resistant pathogens (Example 7); assay type: cell-based; settings: dilution 1 zu 1000, Table 5, no unit printed (assay as Example 5, μg/ml)
DH5a = assay: as above; assay type: cell-based; settings: dilution 1 zu 1000, Table 5, unit not given
[1] = test system: plasmid DNA (2.5 kB fragment of pDONR221 vector); assay: DNA binding, gel retardation; settings: 100 ng or 200 ng plasmid DNA, room temperature 1 h, FIG. 5
[2] = test system: 47434 Stenotrophomonas maltophilia; assay: MIC incl. multi-drug resistant pathogens (Example 7); assay type: cell-based; settings: dilution 1 zu 100.000, Table 5, unit not given
47474 MRSA St. aureus = assay: as above; assay type: cell-based, Staphylococcus aureus; settings: clinical isolate, dilution 1 zu 1000, Table 5, unit not given
47408 MRSA St. aureus = assay: as above; assay type: cell-based, Staphylococcus aureus; settings: clinical isolate, dilution 1 zu 1000, Table 5, unit not given
[3] = test system: 47135 Enterococcus faecium; assay: as above; assay type: cell-based; settings: vancomycin-resistant clinical isolate, dilution 1 zu 1000, Table 5, unit not given
47902 MRSA St. aureus = assay: as above; assay type: cell-based, Staphylococcus aureus; settings: clinical isolate, dilution 1 zu 1000, Table 5, unit not given
[4] = test system: 47715 Enterococcus faecium; assay: as above; assay type: cell-based; settings: vancomycin-resistant clinical isolate, dilution 1 zu 1000, Table 5, unit not given

| Substance | Activity against human pathogens (MIC) (Staphylococcus aureus) | Activity against human pathogens (MIC) (DH5a) | Binding to DNA (gel retardation) [1] | Activity against human pathogens (MIC) [2] | Activity against human pathogens (MIC) (47474 MRSA St. aureus) | Activity against human pathogens (MIC) (47408 MRSA St. aureus) | Activity against human pathogens (MIC) [3] | Activity against human pathogens (MIC) (47902 MRSA St. aureus) | Activity against human pathogens (MIC) [4] |
| --- | --- | --- | --- | --- | --- | --- | --- | --- | --- |
| LRFLKKALKKLF-NH2 [SP10-2] | 10 | 5 | showed binding to the DNA in a concentration dependent manner | 50 | 20 | 20 | 10 | 20 | 20 |
| LRIIKKILKKLI-NH2 [SP10-5] | 20 | 10 | – | – | 50 | 50 | 10 | 50 | 50 |
